According to the supplement of paper PMC11732987, “Enantioselective OTUD7B fragment discovery through chemoproteomics screening and high-throughput optimisation” (Communications Chemistry, 2025):
Some of the results follow. The data scatter; read single values as rough.

By UniProt entry, the sequences of proteins in these tests, tags left out. Where a name states a change or a piece, a line headed by the entry shows the natural chain unless it says otherwise. Residues count along the entry.
UniProt Q9Y4C1: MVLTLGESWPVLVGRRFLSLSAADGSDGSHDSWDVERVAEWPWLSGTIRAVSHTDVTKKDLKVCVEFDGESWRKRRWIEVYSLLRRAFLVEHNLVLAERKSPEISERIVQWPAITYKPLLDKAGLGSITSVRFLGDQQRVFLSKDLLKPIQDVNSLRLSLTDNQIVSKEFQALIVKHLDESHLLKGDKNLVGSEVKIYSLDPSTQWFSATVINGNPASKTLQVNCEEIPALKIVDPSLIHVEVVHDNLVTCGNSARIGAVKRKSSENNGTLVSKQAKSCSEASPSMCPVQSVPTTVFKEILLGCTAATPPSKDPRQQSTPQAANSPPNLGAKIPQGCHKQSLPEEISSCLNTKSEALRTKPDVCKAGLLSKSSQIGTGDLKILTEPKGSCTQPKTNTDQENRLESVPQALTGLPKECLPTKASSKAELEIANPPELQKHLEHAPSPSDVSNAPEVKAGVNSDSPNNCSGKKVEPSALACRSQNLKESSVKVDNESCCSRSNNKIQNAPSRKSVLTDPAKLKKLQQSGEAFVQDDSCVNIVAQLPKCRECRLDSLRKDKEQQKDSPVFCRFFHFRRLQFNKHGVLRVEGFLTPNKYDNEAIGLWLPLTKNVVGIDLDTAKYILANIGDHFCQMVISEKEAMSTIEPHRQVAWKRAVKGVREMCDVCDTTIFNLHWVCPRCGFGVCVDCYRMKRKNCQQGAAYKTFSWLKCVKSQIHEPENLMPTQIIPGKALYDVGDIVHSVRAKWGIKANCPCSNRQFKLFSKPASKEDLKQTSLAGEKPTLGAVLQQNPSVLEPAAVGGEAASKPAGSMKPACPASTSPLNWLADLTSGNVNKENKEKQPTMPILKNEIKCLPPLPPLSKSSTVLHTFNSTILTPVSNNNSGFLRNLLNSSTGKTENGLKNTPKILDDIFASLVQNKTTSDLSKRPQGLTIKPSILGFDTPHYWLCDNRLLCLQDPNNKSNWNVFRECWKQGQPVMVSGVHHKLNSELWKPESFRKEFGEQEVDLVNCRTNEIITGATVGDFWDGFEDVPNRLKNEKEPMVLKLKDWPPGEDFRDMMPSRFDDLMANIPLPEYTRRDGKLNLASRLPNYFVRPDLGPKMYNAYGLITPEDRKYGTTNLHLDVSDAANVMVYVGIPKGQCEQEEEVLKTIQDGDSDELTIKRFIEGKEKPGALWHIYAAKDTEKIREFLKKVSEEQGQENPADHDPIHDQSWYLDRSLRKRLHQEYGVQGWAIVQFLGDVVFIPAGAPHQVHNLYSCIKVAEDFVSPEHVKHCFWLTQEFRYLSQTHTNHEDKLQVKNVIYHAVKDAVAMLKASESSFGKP
UniProt O95239, 1046-1074: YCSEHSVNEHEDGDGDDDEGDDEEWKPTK
UniProt Q8NB78: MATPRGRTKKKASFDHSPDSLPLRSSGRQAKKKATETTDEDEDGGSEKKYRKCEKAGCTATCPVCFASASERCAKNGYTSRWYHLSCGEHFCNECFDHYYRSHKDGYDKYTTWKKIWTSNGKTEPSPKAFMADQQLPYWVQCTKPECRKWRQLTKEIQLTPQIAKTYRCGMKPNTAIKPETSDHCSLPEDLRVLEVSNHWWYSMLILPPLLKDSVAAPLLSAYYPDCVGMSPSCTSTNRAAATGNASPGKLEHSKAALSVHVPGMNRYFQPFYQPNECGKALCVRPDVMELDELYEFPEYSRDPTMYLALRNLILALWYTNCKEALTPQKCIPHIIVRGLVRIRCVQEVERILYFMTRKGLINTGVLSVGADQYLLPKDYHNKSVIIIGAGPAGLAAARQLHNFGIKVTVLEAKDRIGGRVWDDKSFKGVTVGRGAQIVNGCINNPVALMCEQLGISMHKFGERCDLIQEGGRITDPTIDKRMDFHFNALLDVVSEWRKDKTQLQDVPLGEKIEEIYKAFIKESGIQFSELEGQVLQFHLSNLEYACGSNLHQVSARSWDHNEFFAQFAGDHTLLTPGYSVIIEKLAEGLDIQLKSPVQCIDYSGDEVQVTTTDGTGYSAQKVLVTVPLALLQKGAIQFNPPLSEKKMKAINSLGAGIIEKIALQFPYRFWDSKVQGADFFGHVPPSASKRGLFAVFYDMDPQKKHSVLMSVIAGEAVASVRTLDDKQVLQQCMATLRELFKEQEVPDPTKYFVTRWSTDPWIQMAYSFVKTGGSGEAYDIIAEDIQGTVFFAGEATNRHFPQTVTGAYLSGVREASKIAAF
UniProt Q86U28: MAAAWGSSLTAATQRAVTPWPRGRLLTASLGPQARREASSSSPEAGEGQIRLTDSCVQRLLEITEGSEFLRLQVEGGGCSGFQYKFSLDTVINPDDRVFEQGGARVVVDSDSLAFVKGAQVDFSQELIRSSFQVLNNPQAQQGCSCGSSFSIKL
UniProt Q14573, whole entry, looked up: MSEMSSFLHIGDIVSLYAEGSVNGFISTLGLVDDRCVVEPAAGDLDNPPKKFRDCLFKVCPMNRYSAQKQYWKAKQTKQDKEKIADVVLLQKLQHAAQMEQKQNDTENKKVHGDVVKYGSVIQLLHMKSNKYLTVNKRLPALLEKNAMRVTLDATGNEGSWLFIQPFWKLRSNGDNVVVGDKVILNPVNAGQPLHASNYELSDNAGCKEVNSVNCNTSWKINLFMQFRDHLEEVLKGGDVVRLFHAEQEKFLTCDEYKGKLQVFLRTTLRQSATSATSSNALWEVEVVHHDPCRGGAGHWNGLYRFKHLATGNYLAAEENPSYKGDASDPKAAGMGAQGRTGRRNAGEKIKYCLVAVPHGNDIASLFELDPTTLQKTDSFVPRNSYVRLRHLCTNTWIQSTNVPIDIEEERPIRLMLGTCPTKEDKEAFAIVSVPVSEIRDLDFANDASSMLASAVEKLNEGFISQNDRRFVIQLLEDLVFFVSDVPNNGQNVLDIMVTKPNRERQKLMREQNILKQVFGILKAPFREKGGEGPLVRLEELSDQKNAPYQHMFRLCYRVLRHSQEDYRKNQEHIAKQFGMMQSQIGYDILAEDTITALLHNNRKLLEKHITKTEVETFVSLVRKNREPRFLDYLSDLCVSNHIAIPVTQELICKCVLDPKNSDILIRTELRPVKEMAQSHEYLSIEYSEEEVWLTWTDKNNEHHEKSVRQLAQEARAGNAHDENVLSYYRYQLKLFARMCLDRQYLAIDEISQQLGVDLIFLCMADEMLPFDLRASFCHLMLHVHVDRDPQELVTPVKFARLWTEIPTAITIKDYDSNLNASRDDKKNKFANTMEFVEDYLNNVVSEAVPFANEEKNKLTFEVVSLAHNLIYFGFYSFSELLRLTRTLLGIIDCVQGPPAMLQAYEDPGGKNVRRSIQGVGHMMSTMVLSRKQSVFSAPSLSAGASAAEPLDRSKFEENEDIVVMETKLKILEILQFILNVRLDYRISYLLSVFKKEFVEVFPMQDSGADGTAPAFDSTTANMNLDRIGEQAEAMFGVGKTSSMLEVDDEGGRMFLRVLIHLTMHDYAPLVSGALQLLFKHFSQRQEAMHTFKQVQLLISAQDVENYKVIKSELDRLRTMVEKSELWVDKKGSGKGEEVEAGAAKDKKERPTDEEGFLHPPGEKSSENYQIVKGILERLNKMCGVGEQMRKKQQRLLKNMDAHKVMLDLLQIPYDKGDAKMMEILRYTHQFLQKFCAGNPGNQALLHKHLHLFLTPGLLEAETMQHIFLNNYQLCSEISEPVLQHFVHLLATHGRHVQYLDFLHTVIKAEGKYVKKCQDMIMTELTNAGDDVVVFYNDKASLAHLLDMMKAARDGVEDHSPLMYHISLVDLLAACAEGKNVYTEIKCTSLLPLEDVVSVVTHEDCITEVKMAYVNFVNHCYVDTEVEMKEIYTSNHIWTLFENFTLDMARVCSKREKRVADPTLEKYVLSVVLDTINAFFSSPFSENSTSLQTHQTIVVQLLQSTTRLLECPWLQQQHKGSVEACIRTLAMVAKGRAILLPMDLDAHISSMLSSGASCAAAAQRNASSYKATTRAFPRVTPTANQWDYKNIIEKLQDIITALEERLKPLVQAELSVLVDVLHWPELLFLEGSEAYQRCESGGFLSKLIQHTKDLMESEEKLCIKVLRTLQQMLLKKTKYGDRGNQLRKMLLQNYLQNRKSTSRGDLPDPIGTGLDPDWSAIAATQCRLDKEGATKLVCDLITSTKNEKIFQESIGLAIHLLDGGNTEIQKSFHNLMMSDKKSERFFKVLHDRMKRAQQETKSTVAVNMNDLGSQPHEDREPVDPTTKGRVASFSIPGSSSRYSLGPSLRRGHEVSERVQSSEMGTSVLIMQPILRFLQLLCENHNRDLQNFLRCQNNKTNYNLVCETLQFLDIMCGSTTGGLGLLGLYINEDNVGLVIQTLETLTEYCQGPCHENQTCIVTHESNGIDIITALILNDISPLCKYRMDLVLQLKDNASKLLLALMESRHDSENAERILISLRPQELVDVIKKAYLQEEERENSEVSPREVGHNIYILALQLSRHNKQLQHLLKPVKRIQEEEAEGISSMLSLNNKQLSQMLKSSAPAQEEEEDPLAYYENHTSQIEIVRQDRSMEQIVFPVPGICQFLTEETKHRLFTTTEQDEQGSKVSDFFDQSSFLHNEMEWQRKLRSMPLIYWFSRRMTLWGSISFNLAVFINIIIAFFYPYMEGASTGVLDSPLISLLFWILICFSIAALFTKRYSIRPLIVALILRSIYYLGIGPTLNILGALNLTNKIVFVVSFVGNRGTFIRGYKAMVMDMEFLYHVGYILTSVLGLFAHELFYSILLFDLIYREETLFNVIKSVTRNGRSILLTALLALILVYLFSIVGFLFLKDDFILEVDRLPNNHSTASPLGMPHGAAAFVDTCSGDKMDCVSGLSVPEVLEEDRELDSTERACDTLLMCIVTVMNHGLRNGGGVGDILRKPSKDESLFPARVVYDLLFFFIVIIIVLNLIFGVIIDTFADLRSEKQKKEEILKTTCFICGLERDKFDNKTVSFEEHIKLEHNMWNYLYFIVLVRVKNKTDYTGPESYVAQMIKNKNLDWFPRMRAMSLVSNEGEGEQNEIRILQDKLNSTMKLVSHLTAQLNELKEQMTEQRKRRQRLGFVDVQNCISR
UniProt Q9UGL1: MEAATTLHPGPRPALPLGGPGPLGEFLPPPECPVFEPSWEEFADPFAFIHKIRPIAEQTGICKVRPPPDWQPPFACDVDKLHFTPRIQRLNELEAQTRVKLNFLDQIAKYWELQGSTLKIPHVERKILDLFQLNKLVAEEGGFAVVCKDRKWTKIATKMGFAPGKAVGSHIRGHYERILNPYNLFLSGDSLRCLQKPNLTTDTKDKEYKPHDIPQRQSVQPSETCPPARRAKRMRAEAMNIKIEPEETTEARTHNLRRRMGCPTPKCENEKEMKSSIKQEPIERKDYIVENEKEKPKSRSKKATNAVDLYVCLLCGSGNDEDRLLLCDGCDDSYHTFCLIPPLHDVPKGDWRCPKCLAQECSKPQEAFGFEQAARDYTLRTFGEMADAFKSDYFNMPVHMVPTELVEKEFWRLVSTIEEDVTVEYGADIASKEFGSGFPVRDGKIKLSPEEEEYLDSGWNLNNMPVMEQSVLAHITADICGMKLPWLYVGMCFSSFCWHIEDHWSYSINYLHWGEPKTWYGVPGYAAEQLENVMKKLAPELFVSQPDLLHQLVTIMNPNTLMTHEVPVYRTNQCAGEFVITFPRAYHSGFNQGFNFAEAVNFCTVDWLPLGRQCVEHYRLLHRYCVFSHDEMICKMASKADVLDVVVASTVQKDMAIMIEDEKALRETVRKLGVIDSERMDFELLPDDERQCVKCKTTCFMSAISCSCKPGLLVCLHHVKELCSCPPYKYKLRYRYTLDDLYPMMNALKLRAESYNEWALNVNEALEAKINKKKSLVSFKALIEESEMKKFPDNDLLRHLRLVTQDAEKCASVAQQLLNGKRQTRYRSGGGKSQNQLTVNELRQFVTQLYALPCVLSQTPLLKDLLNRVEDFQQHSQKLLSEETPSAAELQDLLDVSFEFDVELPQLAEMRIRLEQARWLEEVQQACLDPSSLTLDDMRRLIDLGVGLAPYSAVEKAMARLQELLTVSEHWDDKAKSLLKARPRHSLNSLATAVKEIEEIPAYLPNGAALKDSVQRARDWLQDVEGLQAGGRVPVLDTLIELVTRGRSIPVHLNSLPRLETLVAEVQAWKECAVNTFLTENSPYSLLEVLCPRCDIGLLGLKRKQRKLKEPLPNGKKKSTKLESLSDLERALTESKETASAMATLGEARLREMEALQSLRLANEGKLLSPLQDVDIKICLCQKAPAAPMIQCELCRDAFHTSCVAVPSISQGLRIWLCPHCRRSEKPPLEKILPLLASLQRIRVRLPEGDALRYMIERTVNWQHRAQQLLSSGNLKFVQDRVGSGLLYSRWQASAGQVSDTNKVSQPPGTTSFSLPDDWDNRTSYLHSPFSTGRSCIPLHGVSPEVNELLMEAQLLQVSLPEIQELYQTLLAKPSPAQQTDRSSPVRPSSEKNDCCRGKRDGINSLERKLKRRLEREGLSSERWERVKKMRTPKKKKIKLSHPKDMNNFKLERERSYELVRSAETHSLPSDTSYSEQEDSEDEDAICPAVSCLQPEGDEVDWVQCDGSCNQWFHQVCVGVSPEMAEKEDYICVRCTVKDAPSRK
UniProt Q9ULH0, 35-55: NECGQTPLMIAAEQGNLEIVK

Tests used:
[1] = compound: ClCC(=O)N[C@@H]1CCCc2ccccc12; test: log2 mean competition ratio of IA-DTB cysteine labelling (DMSO/compound) (log2 ratio); higher = stronger cysteine engagement by compound; conditions: treatment time: 4 h, cell line lysate: HEK293T
Description: (§1)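 IA-DTB competitive cysteine chemoproteomics in HEK293T RIPA lysate. Lysates were treated with compound 29 or 30 at 50 or 200 µM for 4 h, then IA-DTB (500 µM, 1 h), trypsin-digested, NeutrAvidin-enriched and analysed by diaPASEF. Competition ratio = intensity DMSO / intensity compound (n=4 treated, n=64 DMSO); binding: mean log2 CR ≥ 1 and p ≤ 0.05 plus QC filters. Target is the cysteine site.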

[2] = compound: ClCC(=O)N[C@H]1CCCc2ccccc12; test: as above; conditions: treatment time: 4 h, cell line lysate: HEK293T
Description: as §1

Target | log2 mean competition ratio ([1]; 50 µM) | log2 mean competition ratio ([1]; 200 µM) | log2 mean competition ratio ([2]; 50 µM) | log2 mean competition ratio ([2]; 200 µM)
KIF26A C915 (UniProt Q9ULI4) | 0.0744 | 0.312 | -0.472 | 0.488
JMJD1C C684 (UniProt Q15652) | 0.0716 | -0.128 | -0.245 | -0.0249
KDM6B C1138 | -0.292 | 0.227 | -0.684 | 0.278
KDM3A C225 (UniProt Q9Y4C1) | -0.226 | -0.181 | -0.396 | -0.0637
KIF4A C1047 (UniProt O95239) | -0.0688 | 0.174 | -0.405 | 0.0244
KIF2A C309 (UniProt O00139) | 0.404 | 0.095 | 0.639 | 0.102
KDM3A C852 (UniProt Q9Y4C1) | -0.047 | -0.0852 | -0.337 | -0.00266
KDM1A C600 (UniProt O60341) | -0.0526 | -0.401 | -0.0127 | -0.0872
KDM1B C465 (UniProt Q8NB78) | -0.136 | -0.135 | -0.36 | 0.0107
KCTD3 C704 (UniProt Q9Y597) | -0.129 | 0.033 | -0.0469 | -0.0169
JMY C498 (UniProt Q8N9B5) | -0.136 | 0.167 | 0.159 | 0.165
IRS4 C1065 | -0.0198 | -0.224 | -0.123 | 0.157
KHNYN C245 (UniProt O15037) | -0.146 | 0.09 | 0.00478 | 0.248
IRF3 C371 (UniProt Q14653) | -0.207 | 0.086 | 0.164 | 0.127
KAT2A C815 (UniProt Q92830) | 0.195 | 0.149 | 0.065 | 0.165
IRS4 C332 | -0.0984 | -0.116 | 0.21 | 0.135
ISCA2 C56 (UniProt Q86U28) | 0.00963 | 0.0636 | 0.141 | 0.0441
ITPR3 C2668 (UniProt Q14573) | 0.0578 | 0.13 | -0.0183 | -0.0155
KDM6A C797 (UniProt O15550) | 0.00828 | -0.174 | 0.0962 | -0.0372
KIAA1109 C626 (UniProt Q2LD37) | -0.0421 | 0.072 | -0.478 | 0.124
IRS4 C381 | 0.284 | 0.144 | 0.509 | 0.00325
KIAA1671 C817 | 0.0147 | -0.0584 | -0.133 | 0.374
KIF2C C40 (UniProt Q99661) | -0.0576 | -0.161 | 0.292 | -0.128
JAK1 C763 (UniProt P23458) | 0.216 | -0.157 | 0.112 | 0.128
KIF15 C576 (UniProt Q9NS87) | 0.0798 | 0.669 | 0.229 | 0.356

Target | log2 mean competition ratio ([1]; 50 µM) | log2 mean competition ratio ([1]; 200 µM) | log2 mean competition ratio ([2]; 50 µM) | log2 mean competition ratio ([2]; 200 µM)
KAT6A C393 | 0.213 | 0.164 | -0.107 | 0.441
KIF18B C782 (UniProt Q86Y91) | 0.215 | -0.127 | 0.165 | 0.0154
KIF16B C1141 (UniProt Q96L93) | 0.14 | -0.108 | 0.142 | -0.0795
KDM7A C492 | 0.0372 | 0.05 | -0.0933 | -0.053
KIF2A C420 (UniProt O00139) | -0.0766 | 0.216 | 0.0227 | 0.269
KARS1 C427 (UniProt Q15046) | -0.369 | -0.0817 | -0.107 | -0.0482
ITPR3 C36 (UniProt Q14573) | 0.29 | -0.236 | -0.331 | -0.08
IRS4 C257 | 0.61 | 0.026 | 0.448 | -0.264
KDM3A C337 (UniProt Q9Y4C1) | 0.226 | -0.092 | 0.574 | -0.14
IRS4 C658 | 0.21 | 0.279 | 0.0978 | 0.314
KIF1C C229 (UniProt O43896) | -0.0927 | -0.0687 | -0.23 | -0.157
ITPR1 C292 (UniProt Q14643) | 0.0666 | -0.333 | -0.201 | -0.261
JRKL C102 | 0.126 | 0.0578 | 0.0103 | 0.0983
KIF21A C652 | -0.334 | -0.233 | -0.255 | -0.227
KCTD3 C541 (UniProt Q9Y597) | 0.0137 | 0.355 | 0.16 | 0.455
KDM3B C569 (UniProt Q7LBC6) | 0.237 | 0.459 | 0.236 | 0.582
JPH1 C402 (UniProt Q9HDC5) | -0.309 | 0.122 | -0.0695 | 0.28
ITPR3 C254 (UniProt Q14573) | 0.27 | -0.0535 | 0.256 | -0.132
KDM6A C1023 (UniProt O15550) | -0.0188 | 0.0707 | -0.333 | -0.195
KIF20A C87 (UniProt O95235) | -0.256 | 0.136 | -0.132 | 0.354
JADE3 C732 (UniProt Q92613) | -0.146 | 0.146 | -0.153 | -0.0348
KANK2 C562 (UniProt Q63ZY3) | -0.209 | 0.183 | -0.0803 | 0.243
KDM5B C225 (UniProt Q9UGL1) | -0.133 | -0.235 | -0.303 | 0.182
KIAA1671 C554 | 0.0538 | -0.04 | 0.208 | 0.218
KIDINS220 C37 (UniProt Q9ULH0) | -0.189 | -0.174 | -0.437 | -0.481

Single records, as listed above. Values in the order: log2 mean competition ratio ([1]; 50 µM) | log2 mean competition ratio ([1]; 200 µM) | log2 mean competition ratio ([2]; 50 µM) | log2 mean competition ratio ([2]; 200 µM)
KDM5B C225 (UniProt Q9UGL1) is listed with -0.133 | -0.235 | -0.303 | 0.182
ITPR3 C36 (UniProt Q14573) is listed with 0.29 | -0.236 | -0.331 | -0.08
ITPR3 C254 (UniProt Q14573) is listed with 0.27 | -0.0535 | 0.256 | -0.132
